Data on 15 targets can be found in the supplement of paper PMC6411743.

The chains behind the UniProt entries cited, without tags or fusion partners. Where a name states a change or a piece, a line headed by the entry shows the natural chain unless it says otherwise.
UniProt Q16611: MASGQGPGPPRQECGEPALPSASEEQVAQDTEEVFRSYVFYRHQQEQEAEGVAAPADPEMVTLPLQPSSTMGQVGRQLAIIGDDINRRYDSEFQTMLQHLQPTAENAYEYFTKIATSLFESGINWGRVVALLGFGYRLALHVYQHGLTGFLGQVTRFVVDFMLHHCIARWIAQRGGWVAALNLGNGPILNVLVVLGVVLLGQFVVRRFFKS
UniProt Q14691: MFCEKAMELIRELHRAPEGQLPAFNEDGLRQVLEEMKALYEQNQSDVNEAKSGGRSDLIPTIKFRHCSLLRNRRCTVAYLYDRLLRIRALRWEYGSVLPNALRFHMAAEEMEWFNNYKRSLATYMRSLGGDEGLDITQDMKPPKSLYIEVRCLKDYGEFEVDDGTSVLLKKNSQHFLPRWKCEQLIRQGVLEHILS
UniProt Q3T8J9: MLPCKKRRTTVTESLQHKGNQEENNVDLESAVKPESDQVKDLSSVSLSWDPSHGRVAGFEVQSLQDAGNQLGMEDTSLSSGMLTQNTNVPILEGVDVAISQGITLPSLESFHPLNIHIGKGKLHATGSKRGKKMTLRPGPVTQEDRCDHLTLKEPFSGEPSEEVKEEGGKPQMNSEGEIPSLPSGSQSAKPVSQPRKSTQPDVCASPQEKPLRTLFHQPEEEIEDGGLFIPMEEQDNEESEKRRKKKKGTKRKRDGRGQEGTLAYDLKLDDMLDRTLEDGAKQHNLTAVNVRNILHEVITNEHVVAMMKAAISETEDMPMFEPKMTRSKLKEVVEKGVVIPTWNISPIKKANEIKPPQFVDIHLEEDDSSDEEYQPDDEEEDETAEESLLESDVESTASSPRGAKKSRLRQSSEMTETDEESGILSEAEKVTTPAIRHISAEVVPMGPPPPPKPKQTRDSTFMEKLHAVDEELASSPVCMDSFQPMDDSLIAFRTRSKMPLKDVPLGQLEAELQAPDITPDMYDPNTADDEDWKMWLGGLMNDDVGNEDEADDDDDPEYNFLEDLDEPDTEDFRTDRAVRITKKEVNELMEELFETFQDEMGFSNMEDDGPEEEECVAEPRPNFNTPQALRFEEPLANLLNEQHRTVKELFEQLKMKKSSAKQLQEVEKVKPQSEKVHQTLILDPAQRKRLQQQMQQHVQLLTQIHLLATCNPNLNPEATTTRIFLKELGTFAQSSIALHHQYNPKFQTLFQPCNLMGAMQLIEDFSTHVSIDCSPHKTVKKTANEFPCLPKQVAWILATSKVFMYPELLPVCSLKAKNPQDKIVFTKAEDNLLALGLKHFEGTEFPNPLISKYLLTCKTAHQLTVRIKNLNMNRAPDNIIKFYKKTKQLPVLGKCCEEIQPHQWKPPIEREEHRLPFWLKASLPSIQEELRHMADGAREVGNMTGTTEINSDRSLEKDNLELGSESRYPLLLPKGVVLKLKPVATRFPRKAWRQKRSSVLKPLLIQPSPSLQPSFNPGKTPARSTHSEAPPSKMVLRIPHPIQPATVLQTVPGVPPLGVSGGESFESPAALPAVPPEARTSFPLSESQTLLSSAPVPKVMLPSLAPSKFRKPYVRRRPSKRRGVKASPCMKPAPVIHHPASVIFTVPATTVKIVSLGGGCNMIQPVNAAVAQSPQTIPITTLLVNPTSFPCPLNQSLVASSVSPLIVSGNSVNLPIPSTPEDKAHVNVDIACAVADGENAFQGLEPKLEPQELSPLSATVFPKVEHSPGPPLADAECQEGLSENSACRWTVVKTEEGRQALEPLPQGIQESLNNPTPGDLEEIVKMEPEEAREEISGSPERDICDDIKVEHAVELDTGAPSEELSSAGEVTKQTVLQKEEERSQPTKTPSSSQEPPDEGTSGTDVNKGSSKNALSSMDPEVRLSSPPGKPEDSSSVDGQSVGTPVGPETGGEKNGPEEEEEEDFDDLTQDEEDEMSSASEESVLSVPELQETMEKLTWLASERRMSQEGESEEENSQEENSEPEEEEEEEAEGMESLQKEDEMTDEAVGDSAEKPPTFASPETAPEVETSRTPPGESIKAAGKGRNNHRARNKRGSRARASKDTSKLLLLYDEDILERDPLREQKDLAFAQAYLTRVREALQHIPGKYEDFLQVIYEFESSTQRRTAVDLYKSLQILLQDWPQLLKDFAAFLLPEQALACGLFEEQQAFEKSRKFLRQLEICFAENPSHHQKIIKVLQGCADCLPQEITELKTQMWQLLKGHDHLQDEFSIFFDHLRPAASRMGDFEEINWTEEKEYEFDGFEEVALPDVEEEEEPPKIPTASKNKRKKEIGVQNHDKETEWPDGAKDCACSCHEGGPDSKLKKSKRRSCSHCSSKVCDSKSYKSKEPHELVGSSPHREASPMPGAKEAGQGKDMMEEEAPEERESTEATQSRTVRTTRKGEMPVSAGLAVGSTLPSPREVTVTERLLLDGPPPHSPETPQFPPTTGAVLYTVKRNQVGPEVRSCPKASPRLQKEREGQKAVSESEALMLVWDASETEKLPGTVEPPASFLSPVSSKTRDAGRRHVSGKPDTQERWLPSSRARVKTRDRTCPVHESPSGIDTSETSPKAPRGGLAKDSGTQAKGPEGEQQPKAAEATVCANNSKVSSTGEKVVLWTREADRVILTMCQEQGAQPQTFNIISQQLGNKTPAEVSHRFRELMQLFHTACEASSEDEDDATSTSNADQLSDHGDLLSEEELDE
UniProt Q15554: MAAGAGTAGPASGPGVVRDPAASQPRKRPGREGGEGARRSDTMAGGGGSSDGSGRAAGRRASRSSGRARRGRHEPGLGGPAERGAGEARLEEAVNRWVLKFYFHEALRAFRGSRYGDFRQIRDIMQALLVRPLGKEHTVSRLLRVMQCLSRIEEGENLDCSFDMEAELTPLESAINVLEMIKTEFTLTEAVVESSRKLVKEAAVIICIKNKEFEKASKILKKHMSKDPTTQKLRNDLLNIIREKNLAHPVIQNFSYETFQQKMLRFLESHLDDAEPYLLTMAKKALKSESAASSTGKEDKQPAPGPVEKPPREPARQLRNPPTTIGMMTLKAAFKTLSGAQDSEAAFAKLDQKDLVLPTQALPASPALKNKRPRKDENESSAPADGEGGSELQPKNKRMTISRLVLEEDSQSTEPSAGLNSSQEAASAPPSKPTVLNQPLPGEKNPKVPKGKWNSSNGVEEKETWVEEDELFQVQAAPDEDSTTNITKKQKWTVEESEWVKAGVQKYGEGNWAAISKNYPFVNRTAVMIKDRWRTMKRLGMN
UniProt Q9H583: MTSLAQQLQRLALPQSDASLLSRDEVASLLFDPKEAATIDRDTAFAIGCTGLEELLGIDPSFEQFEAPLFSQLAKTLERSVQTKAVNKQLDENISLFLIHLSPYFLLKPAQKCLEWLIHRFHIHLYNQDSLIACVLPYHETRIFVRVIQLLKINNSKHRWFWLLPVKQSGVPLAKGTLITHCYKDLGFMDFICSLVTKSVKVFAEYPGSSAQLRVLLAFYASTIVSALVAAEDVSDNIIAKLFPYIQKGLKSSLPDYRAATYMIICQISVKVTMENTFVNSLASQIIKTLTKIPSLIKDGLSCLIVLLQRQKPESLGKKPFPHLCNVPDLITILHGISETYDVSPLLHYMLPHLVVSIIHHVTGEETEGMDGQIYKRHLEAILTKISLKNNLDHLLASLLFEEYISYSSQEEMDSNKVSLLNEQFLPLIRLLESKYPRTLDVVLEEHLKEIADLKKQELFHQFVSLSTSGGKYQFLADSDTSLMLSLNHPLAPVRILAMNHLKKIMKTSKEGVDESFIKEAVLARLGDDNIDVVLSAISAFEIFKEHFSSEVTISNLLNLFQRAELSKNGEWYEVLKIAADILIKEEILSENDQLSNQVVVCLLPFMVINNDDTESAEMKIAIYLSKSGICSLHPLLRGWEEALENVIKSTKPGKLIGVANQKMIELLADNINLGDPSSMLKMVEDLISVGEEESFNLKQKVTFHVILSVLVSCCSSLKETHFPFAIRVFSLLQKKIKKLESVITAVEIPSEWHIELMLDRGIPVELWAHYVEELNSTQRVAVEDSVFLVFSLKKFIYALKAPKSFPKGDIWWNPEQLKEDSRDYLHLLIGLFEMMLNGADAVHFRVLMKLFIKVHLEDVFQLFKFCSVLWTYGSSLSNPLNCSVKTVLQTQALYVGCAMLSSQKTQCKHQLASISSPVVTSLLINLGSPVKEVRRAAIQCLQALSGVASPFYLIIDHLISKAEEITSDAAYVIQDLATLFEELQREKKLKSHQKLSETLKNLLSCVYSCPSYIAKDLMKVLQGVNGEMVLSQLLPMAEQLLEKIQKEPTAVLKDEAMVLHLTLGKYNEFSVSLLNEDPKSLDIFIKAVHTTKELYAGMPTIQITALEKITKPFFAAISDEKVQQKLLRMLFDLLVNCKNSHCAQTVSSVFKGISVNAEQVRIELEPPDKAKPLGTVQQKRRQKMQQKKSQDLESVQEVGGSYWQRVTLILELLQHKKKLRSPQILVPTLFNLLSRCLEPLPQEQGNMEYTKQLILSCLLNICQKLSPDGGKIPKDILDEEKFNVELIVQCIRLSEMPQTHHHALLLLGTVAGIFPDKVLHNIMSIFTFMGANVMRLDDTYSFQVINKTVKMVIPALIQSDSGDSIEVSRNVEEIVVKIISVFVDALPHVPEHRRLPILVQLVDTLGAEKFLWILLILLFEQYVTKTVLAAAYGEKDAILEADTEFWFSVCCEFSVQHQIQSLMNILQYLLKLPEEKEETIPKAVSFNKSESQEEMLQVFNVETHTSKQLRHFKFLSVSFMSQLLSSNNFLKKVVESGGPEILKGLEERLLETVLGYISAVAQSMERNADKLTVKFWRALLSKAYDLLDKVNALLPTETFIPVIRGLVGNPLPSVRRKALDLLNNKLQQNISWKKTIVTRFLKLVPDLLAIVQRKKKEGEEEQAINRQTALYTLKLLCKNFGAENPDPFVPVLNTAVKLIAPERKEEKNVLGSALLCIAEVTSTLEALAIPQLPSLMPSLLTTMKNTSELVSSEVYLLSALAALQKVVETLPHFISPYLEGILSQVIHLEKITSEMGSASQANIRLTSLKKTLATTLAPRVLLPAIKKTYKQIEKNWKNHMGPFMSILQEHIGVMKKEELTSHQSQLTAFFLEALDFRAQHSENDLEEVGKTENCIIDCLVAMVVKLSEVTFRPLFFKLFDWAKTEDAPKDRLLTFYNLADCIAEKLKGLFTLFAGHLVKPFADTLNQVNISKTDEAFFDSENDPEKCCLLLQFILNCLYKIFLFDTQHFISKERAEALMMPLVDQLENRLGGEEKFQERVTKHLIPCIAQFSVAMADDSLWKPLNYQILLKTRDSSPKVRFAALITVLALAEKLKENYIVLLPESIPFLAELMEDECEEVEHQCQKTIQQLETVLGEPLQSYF
UniProt Q2NL82: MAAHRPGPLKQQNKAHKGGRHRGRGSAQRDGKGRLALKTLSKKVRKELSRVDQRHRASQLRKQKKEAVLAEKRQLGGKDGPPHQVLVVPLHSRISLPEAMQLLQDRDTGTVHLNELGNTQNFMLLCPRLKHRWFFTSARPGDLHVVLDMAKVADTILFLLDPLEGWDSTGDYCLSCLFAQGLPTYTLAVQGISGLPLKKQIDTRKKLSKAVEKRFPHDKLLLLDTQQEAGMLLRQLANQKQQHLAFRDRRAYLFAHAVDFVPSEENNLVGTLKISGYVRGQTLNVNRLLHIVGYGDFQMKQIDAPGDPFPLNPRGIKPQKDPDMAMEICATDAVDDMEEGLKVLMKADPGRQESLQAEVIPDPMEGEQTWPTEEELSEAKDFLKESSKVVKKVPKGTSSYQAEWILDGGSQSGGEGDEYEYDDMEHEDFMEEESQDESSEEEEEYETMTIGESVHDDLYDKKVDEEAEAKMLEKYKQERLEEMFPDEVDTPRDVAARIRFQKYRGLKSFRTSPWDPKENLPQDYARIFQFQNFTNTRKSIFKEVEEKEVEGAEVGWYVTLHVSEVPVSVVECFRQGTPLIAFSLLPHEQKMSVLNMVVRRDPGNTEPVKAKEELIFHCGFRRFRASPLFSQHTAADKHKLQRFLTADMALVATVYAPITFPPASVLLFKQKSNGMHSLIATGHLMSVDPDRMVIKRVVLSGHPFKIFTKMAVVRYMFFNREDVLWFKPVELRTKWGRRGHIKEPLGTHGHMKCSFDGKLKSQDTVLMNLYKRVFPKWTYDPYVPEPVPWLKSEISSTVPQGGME
UniProt Q16254: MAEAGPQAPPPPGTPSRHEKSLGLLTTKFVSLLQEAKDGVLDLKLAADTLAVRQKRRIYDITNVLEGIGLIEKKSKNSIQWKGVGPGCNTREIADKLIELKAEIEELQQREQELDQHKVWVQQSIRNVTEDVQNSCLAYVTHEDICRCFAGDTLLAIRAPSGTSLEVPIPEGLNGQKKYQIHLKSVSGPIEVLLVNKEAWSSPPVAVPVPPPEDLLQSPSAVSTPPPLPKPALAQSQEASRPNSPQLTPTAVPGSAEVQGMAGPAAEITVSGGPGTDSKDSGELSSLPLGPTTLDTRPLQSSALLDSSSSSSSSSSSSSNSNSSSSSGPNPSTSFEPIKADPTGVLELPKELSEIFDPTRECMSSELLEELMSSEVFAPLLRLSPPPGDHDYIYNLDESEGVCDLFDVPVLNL

± gives the standard deviation of the averaged measurements. The list shows a part of the results.

Compound in the test: Nc1nc2c(ncn2[C@@H]2O[C@H](COP(=O)(O)OP(=O)(O)OP(=O)(O)O)[C@@H](O)[C@H]2O)c(=O)[nH]1 [guanosine triphosphate]
Nature of the test: NP40-soluble protein abundance relative to vehicle (solubility fold change) (ratio); higher = more soluble protein in presence of GTP. Summed up: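 Across three independent experiments, values are fold changes against the detergent-processed vehicle for each replicate, based on vsn-normalised intensities. The samples were Jurkat crude lysate treated with eight concentrations (0.1 to 10 mM) for 10 min at room temperature and then 3 min at 37 °C. Lysate was solubilised with 0.8% NP40 and benzonase, ultracentrifuged, and the supernatant analysed by TMT-labelled LC-MS/MS.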

In the case of UniProt Q5JSH3 and related entries, the NP40-soluble protein abundance is, setting by setting: (concentration: 0.1mM) 0.964 ± 0.05; (concentration: 0.5mM) 0.965 ± 0.038; (concentration: 1mM) 0.958 ± 0.064; (concentration: 2mM) 0.925 ± 0.057; (concentration: 4mM) 0.922 ± 0.09; (concentration: 6mM) 0.911 ± 0.075. Further, the NP40-soluble protein abundance (concentration: 8mM) was found to be 0.949 ± 0.056 and the NP40-soluble protein abundance (concentration: 10mM) stood at 0.922 ± 0.061.
Take UniProt Q16611 and related entries: the NP40-soluble protein abundance was determined as 0.936 ± 0.08 (concentration: 0.1mM); 0.901 ± 0.036 (concentration: 0.5mM); 0.887 ± 0.07 (concentration: 1mM); 0.942 ± 0.077 (concentration: 2mM); 0.879 ± 0.093 (concentration: 4mM); 0.845 ± 0.082 (concentration: 6mM). For the same target, the NP40-soluble protein abundance turned out to be 0.785 ± 0.16 (concentration: 8mM) and 0.881 ± 0.14 (concentration: 10mM).
On to GINS1 (UniProt Q14691), for which the NP40-soluble protein abundance is 1.03 ± 0.032 (concentration: 0.1mM); 1.01 ± 0.05 (concentration: 0.5mM); 0.9549 ± 0.0051 (concentration: 1mM); 0.974 ± 0.028 (concentration: 2mM); 0.938 ± 0.068 (concentration: 4mM); 0.94 ± 0.033 (concentration: 6mM). Further, the NP40-soluble protein abundance reads like this: (concentration: 8mM) 0.929 ± 0.054; (concentration: 10mM) 0.929 ± 0.07.
Consider UniProt Q3T8J9 and related entries, for which the NP40-soluble protein abundance was 0.965 ± 0.035 (concentration: 0.1mM); 1.06 ± 0.038 (concentration: 0.5mM); 1.07 ± 0.024 (concentration: 1mM); 1.15 ± 0.071 (concentration: 2mM); 1.13 ± 0.025 (concentration: 4mM); 1.1 ± 0.046 (concentration: 6mM). The NP40-soluble protein abundance by setting is: (concentration: 8mM) 1.03 ± 0.055; (concentration: 10mM) 1.11 ± 0.11.
TERF2 (UniProt Q15554): the NP40-soluble protein abundance is, setting by setting: (concentration: 0.1mM) 0.998 ± 0.058; (concentration: 0.5mM) 1.05 ± 0.052; (concentration: 1mM) 1.06 ± 0.055; (concentration: 2mM) 1.07 ± 0.068; (concentration: 4mM) 1.07 ± 0.057; (concentration: 6mM) 1.1 ± 0.058. The NP40-soluble protein abundance is 1.15 ± 0.085 (concentration: 8mM) and 1.14 ± 0.1 (concentration: 10mM).
For the target “Q5T3Q7 and related entries (UniProt Q9H583)”, the NP40-soluble protein abundance came out at 1.01 ± 0.039 (concentration: 0.1mM); 1.04 ± 0.061 (concentration: 0.5mM); 0.991 ± 0.065 (concentration: 1mM); 1.1 ± 0.076 (concentration: 2mM); 1.23 ± 0.099 (concentration: 4mM); 1.28 ± 0.13 (concentration: 6mM). In addition, the NP40-soluble protein abundance turned out to be 1.26 ± 0.12 (concentration: 8mM) and 1.38 ± 0.043 (concentration: 10mM).
Regarding UniProt Q5T0N5-3|Q5T0N5-4, the NP40-soluble protein abundance was found to be 1.03 ± 0.053 (concentration: 0.1mM); 0.941 ± 0.028 (concentration: 0.5mM); 1.01 ± 0.074 (concentration: 1mM); 0.919 ± 0.023 (concentration: 2mM); 0.998 ± 0.047 (concentration: 4mM); 0.948 ± 0.05 (concentration: 6mM). For the same target, the NP40-soluble protein abundance (concentration: 8mM) came to 1.01 ± 0.051 and the NP40-soluble protein abundance (concentration: 10mM) was 0.938 ± 0.048.
For the target PAFAH1B3 (UniProt Q15102), the NP40-soluble protein abundance by setting is: (concentration: 0.1mM) 0.938 ± 0.072; (concentration: 0.5mM) 0.934 ± 0.064; (concentration: 1mM) 0.862 ± 0.011; (concentration: 2mM) 0.897 ± 0.059; (concentration: 4mM) 0.866 ± 0.026; (concentration: 6mM) 0.862 ± 0.027. The NP40-soluble protein abundance reads like this: (concentration: 8mM) 0.779 ± 0.061; (concentration: 10mM) 0.832 ± 0.079.
In the case of VPS26B (UniProt Q4G0F5), the NP40-soluble protein abundance was 1.04 ± 0.079 (concentration: 0.1mM); 1.01 ± 0.12 (concentration: 0.5mM); 0.89 ± 0.11 (concentration: 1mM); 0.953 ± 0.13 (concentration: 2mM); 0.954 ± 0.077 (concentration: 4mM); 0.869 ± 0.09 (concentration: 6mM). The NP40-soluble protein abundance (concentration: 8mM) was 0.8173 ± 0.0071 and the NP40-soluble protein abundance (concentration: 10mM) is 0.822 ± 0.077.
On to NOL9 (UniProt Q5SY16), for which the NP40-soluble protein abundance worked out at 1.02 ± 0.08 (concentration: 0.1mM); 1.05 ± 0.15 (concentration: 0.5mM); 1.03 ± 0.08 (concentration: 1mM); 1.07 ± 0.12 (concentration: 2mM); 1.03 ± 0.059 (concentration: 4mM); 1.05 ± 0.071 (concentration: 6mM). The NP40-soluble protein abundance stood at 1.09 ± 0.099 (concentration: 8mM) and 1.12 ± 0.056 (concentration: 10mM).
On to “Q5QPL9 and related entries (UniProt Q9UKM9)”, for which the NP40-soluble protein abundance is, setting by setting: (concentration: 0.1mM) 0.927 ± 0.04; (concentration: 0.5mM) 1 ± 0.025; (concentration: 1mM) 1.07 ± 0.14; (concentration: 2mM) 1.07 ± 0.2; (concentration: 4mM) 1.07 ± 0.28; (concentration: 6mM) 1.05 ± 0.25. Further, the NP40-soluble protein abundance reads like this: (concentration: 8mM) 1.01 ± 0.24; (concentration: 10mM) 0.949 ± 0.23.
Turning to TSR1 (UniProt Q2NL82), the NP40-soluble protein abundance is, setting by setting: (concentration: 0.1mM) 1.01 ± 0.034; (concentration: 0.5mM) 1.01 ± 0.093; (concentration: 1mM) 0.975 ± 0.15; (concentration: 2mM) 1.01 ± 0.14; (concentration: 4mM) 0.969 ± 0.2; (concentration: 6mM) 0.938 ± 0.2. Further, the NP40-soluble protein abundance was determined as 0.931 ± 0.24 (concentration: 8mM) and 0.912 ± 0.25 (concentration: 10mM).
On to UniProt Q15717 and related entries, for which the NP40-soluble protein abundance (concentration: 0.1mM) was determined as 0.9635 ± 0.0076; the NP40-soluble protein abundance (concentration: 0.5mM) was 0.9876 ± 0.0098; the NP40-soluble protein abundance (concentration: 1mM) is 0.933 ± 0.011; the NP40-soluble protein abundance (concentration: 2mM) was determined as 0.941 ± 0.027; the NP40-soluble protein abundance (concentration: 4mM) is 0.941 ± 0.036; the NP40-soluble protein abundance (concentration: 6mM) came to 0.949 ± 0.03. Moreover, the NP40-soluble protein abundance (concentration: 8mM) turned out to be 0.924 ± 0.025 and the NP40-soluble protein abundance (concentration: 10mM) was determined as 0.92 ± 0.016.
Consider UniProt Q15742 and related entries, for which the NP40-soluble protein abundance came to 1.02 ± 0.044 (concentration: 0.1mM); 1.06 ± 0.015 (concentration: 0.5mM); 1.03 ± 0.15 (concentration: 1mM); 1.03 ± 0.15 (concentration: 2mM); 0.998 ± 0.17 (concentration: 4mM); 1.02 ± 0.14 (concentration: 6mM). The NP40-soluble protein abundance is 0.972 ± 0.09 (concentration: 8mM) and 0.985 ± 0.043 (concentration: 10mM).
Regarding E2F4 (UniProt Q16254), the NP40-soluble protein abundance is 1.07 ± 0.053 (concentration: 0.1mM); 1 ± 0.068 (concentration: 0.5mM); 1.08 ± 0.074 (concentration: 1mM); 1.08 ± 0.096 (concentration: 2mM); 1.07 ± 0.074 (concentration: 4mM); 1.08 ± 0.092 (concentration: 6mM). For the same target, the NP40-soluble protein abundance (concentration: 8mM) came out at 1.1 ± 0.032 and the NP40-soluble protein abundance (concentration: 10mM) was determined as 1.1 ± 0.073.
